Measurements taken from PMC7868385.
These are yes or no findings as the source states them, for the method shown.

Molecular target: BSA, P02769
Experiment: condition: 0.1, 1.0, 10, and 20 μg/ml coated; 10% human serum; ELISA; His-tag recombinant proteins or BSA (0.1, 1.0, 10, and 20 μg/ml, 100 μl) immobilized on the 96-well plate overnight at 4°C; 10% human serum added, 37°C for 1 h; bound FH detected with anti-FH monoclonal antibody, OD450; only the target purified
Conditions: remark: other sources report otherwise

B1: Factor H in human serum, P08603 19-1231 (protein)
chain: EDCNELPPRRNTEILTGSWSDQTYPEGTQAIYKCRPGYRSLGNVIMVCRKGEWVALNPLRKCQKRPCGHPGDTPFGTFTLTGGNVFEYGVKAVYTCNEGYQLLGEINYRECDTDGWTNDIPICEVVKCLPVTAPENGKIVSSAMEPDREYHFGQAVRFVCNSGYKIEGDEEMHCSDDGFWSKEKPKCVEISCKSPDVINGSPISQKIIYKENERFQYKCNMGYEYSERGDAVCTESGWRPLPSCEEKSCDNPYIPNGDYSPLRIKHRTGDEITYQCRNGFYPATRGNTAKCTSTGWIPAPRCTLKPCDYPDIKHGGLYHENMRRPYFPVAVGKYYSYYCDEHFETPSGSYWDHIHCTQDGWSPAVPCLRKCYFPYLENGYNQNYGRKFVQGKSIDVACHPGYALPKAQTTVTCMENGWSPTPRCIRVKTCSKSSIDIENGFISESQYTYALKEKAKYQCKLGYVTADGETSGSITCGKDGWSAQPTCIKSCDIPVFMNARTKNDFTWFKLNDTLDYECHDGYESNTGSTTGSIVCGYNGWSDLPICYERECELPKIDVHLVPDRKKDQYKVGEVLKFSCKPGFTIVGPNSVQCYHFGLSPDLPICKEQVQSCGPPPELLNGNVKEKTKEEYGHSEVVEYYCNPRFLMKGPNKIQCVDGEWTTLPVCIVEESTCGDIPELEHGWAQLSSPPYYYGDSVEFNCSESFTMIGHRSITCIHGVWTQLPQCVAIDKLKKCKSSNLIILEEHLKNKKEFDHNSNIRYRCRGKEGWIHTVCINGRWDPEVNCSMAQIQLCPPPPQIPNSHNMTTTLNYRDGEKVSVLCQENYLIQEGEEITCKDGRWQSIPLCVEKIPCSQPPQIEHGTINSSRSSQESYAHGTKLSYTCEGGFRISEENETTCYMGKWSSPPQCEGLPCKSPPEISHGVVAHMSDSYQYGEEVTYKCFEGFGIDGPAIAKCLGEKWSHPPSCIKTDCLSLPSFENAIPMGEKKDVYKAGEQVTYTCATYYKMDGASNVTCINSRWTGRPTCRDTSCVNPPTVQNAYIVSRQMSKYPSGERVRYQCRSPYEMFGDEEVMCLNGNWTEPPQCKDSTGKCGPPPPIDNGDITSFPLSVYAPASSVEYQCQNLYQLEGNKRITCRNGQWSEPPKCLHPCVISREIMENYNIALRWTAKQKLYSRTGESVEFVCKRGYRLSSRSHTLRTTCWDGKLEYPTCAKR
Question: B1 was tested. Which binding did it give?
Answer: Its binding is “no binding”.
